# From paper doi:10.1101/2024.11.08.622053
# No constants are given. Whether binding was seen depends on the method and setting. Binding seen in cells or lysates may run through a third protein. Here binding means that the protein was enriched with, or labelled near, the bait; the list need not be complete.
# B1: PBP1a (enzyme, UniProt Q8DR59 1-719)
# chain: MNKPTILRLIKYLSISFLSLVIAAIVLGGGVFFYYVSKAPSLSESKLVATTSSKIYDNKNQLIADLGSERRVNAQANDIPTDLVKAIVSIEDHRFFDHRGIDTIRILGAFLRNLQSNSLQGGSALTQQLIKLTYFSTSTSDQTISRKAQEAWLAIQLEQKATKQEILTYYINKVYMSNGNYGMQTAAQNYYGKDLNNLSLPQLALLAGMPQAPNQYDPYSHPEAAQDRRNLVLSEMKNQGYISAEQYEKAVNTPITDGLQSLKSASNYPAYMDNYLKEVINQVEEETGYNLLTTGMDVYTNVDQEAQKHLWDIYNTDEYVAYPDDELQVASTIVDVSNGKVIAQLGARHQSSNVSFGINQAVETNRDWGSTMKPITDYAPALEYGVYESTATIVHDEPYNYPGTNTPVYNWDRGYFGNITLQYALQQSRNVPAVETLNKVGLNRAKTFLNGLGIDYPSIHYSNAISSNTTESDKKYGASSEKMAAAYAAFANGGTYYKPMYIHKVVFSDGSEKEFSNVGTRAMKETTAYMMTDMMKTVLSYGTGRNAYLAWLPQAGKTGTSNYTDEEIENHIKTSQFVAPDELFAGYTRKYSMAVWTGYSNRLTPLVGNGLTVAAKVYRSMMTYLSEGSNPEDWNIPEGLYRNGEFVFKNGARSTWSSPAPQQPPSTESSSSSSDSSTSQSSSTTPSTNNSTTTNPNNNTQQSNTTPDQQNQNPQPAQP
# B2: PgdA (enzyme, UniProt Q8DP63 1-463)
# chain: MNKSRLGRGRHGKTRHVLLALIGILAISICLLGGFIAFKIYQQKSFEQKIESLKKEKDDQLSEGNQKEHFRQGQAEVIAYYPLQGEKVISSVRELINQDVKDKLESKDNLVFYYTEQEESGLKGVVNRNVTKQIYDLVAFKIEETEKTSLGKVHLTEDGQPFTLDQLFSDASKAKEQLIKELTSFIEDKKIEQDQSEQIVKNFSDQDLSAWNFDYKDSQIILYPSPVVENLEEIALPVSAFFDVIQSSYLLEKDAALYQSYFDKKHQKVVALTFDDGPNPATTPQVLETLAKYDIKATFFVLGKNVSGNEDLVKRIKSEGHVVGNHSWSHPILSQLSLDEAKKQITDTEDVLTKVLGSSSKLMRPPYGAITDDIRNSLDLSFIMWDVDSLDWKSKNEASILTEIQHQVANGSIVLMHDIHSPTVNALPRVIEYLKNQGYTFVTIPEMLNTRLKAHELYYSRDE
# Target: full-length S protein tagged at its N-terminus with GFP (S. pneumoniae)
# Test: affinity purification with mass spectrometry
row,Binder,binding
1,B1,binds
2,B2,binds
